Assay results as given in patent publication US12521402B2, “Biomarker and drug combinations for heart failure prediction” (Endothelium Scanning Nanotechnology Limited, priority 2022, dated 2026).

B1: QCR6 (protein, UniProt P07919 14-91, looked up)
Cytochrome b-c1 complex …: GDPEEEEEEEEELVDPLTTVREQCEQLEKCVKARERLELCDERVSSRSHTEEDCTEELFDFLHARDHCVAHKLFNNLK
B2: TBCC (protein, UniProt Q15814 1-346, looked up)
Tubulin-specific chaperone C: MESVSCSAAAVRTGDMESQRDLSLVPERLQRREQERQLEVERRKQKRQNQEVEKENSHFFVATFVRERAAVEELLERAESVERLEEAASRLQGLQKLINDSVFFLAAYDLRQGQEALARLQAALAERRRGLQPKKRFAFKTRGKDAASSTKVDAAPGIPPAVESIQDSPLPKKAEGDLGPSWVCGFSNLESQVLEKRASELHQRDVLLTELSNCTVRLYGNPNTLRLTKAHSCKLLCGPVSTSVFLEDCSDCVLAVACQQLRIHSTKDTRIFLQVTSRAIVEDCSGIQFAPYTWSYPEIDKDFESSGLDRSKNNWNDVDDFNWLARDMASPNWSILPEEERNIQWD
B3: CALL5 (protein, UniProt Q9NZT1 2-146, looked up)
Calmodulin-like protein 5: AGELTPEEEAQYKKAFSAVDTDGNGTINAQELGAALKATGKNLSEAQLRKLISEVDSDGDGEISFQEFLTAAKKARAGLEDLQVAFRAFDQDGDGHITVDELRRAMAGLGQPLPQEELDAMIREADVDQDGRVNYEEFARMLAQE
B4: C1TC (protein, UniProt P11586 1-935, looked up)
C-1-tetrahydrofolate …: MAPAEILNGKEISAQIRARLKNQVTQLKEQVPGFTPRLAILQVGNRDDSNLYINVKLKAAEEIGIKATHIKLPRTTTESEVMKYITSLNEDSTVHGFLVQLPLDSENSINTEEVINAIAPEKDVDGLTSINAGKLARGDLNDCFIPCTPKGCLELIKETGVPIAGRHAVVVGRSKIVGAPMHDLLLWNNATVTTCHSKTAHLDEEVNKGDILVVATGQPEMVKGEWIKPGAIVIDCGINYVPDDKKPNGRKVVGDVAYDEAKERASFITPVPGGVGPMTVAMLMQSTVESAKRFLEKFKPGKWMIQYNNLNLKTPVPSDIDISRSCKPKPIGKLAREIGLLSEEVELYGETKAKVLLSALERLKHRPDGKYVVVTGITPTPLGEGKSTTTIGLVQALGAHLYQNVFACVRQPSQGPTFGIKGGAAGGGYSQVIPMEEFNLHLTGDIHAITAANNLVAAAIDARIFHELTQTDKALFNRLVPSVNGVRRFSDIQIRRLKRLGIEKTDPTTLTDEEINRFARLDIDPETITWQRVLDTNDRFLRKITIGQAPTEKGHTRTAQFDISVASEIMAVLALTTSLEDMRERLGKMVVASSKKGEPVSAEDLGVSGALTVLMKDAIKPNLMQTLEGTPVFVHAGPFANIAHGNSSIIADRIALKLVGPEGFVVTEAGFGADIGMEKFFNIKCRYSGLCPHVVVLVATVRALKMHGGGPTVTAGLPLPKAYIQENLELVEKGFSNLKKQIENARMFGIPVVVAVNAFKTDTESELDLISRLSREHGAFDAVKCTHWAEGGKGALALAQAVQRAAQAPSSFQLLYDLKLPVEDKIRIIAQKIYGADDIELLPEAQHKAEVYTKQGFGNLPICMAKTHLSLSHNPEQKGVPTGFILPIRDIRASVGAGFLYPLVGTMSTMPGLPTRPCFYDIDLDPETEQVNGLF
B5: ZA2G (protein, UniProt P25311 21-298, looked up)
Zinc-alpha-2-glycoprotein: QENQDGRYSLTYIYTGLSKHVEDVPAFQALGSLNDLQFFRYNSKDRKSQPMGLWRQVEGMEDWKQDSQLQKAREDIFMETLKDIVEYYNDSNGSHVLQGRFGCEIENNRSSGAFWKYYYDGKDYIEFNKEIPAWVPFDPAAQITKQKWEAEPVYVQRAKAYLEEECPATLRKYLKYSKNILDRQDPPSVVVTSHQAPGEKKKLKCLAYDFYPGKIDVHWTRAGEVQEPELRGDVLHNGNGTYQSWVVVAVPPQDTAPYSCHVQHSSLAQPLVVPWEAS
B6: T132A (protein, UniProt Q24JP5 36-1023, looked up)
Transmembrane protein 132A: CGQAPLDPVYLPAALELLDAPEHFRVQQVGHYPPANSSLSSRSETFLLLQPWPRAQPLLRASYPPFATQQVVPPRVTEPHQRPVPWDVRAVSVEAAVTPAEPYARVLFHLKGQDWPPGSGSLPCARLHATHPAGTAHQACRFQPSLGACVVELELPSHWFSQASTTRAELAYTLEPAAEGPGGCGSGEENDPGEQALPVGGVELRPADPPQYQEVPLDEAVTLRVPDMPVRPGQLFSATLLLRHNFTASLLTLRIKVKKGLHVTAARPAQPTLWTAKLDRFKGSRHHTTLITCHRAGLTEPDSSPLELSEFLWVDFVVENSTGGGVAVTRPVTWQLEYPGQAPEAEKDKMVWEILVSERDIRALIPLAKAEELVNTAPLTGVPQHVPVRLVTVDGGGALVEVTEHVGCESANTQVLQVSEACDAVFVAGKESRGARGVRVDFWWRRLRASLRLTVWAPLLPLRIELTDTTLEQVRGWRVPGPAEGPAEPAAEASDEAERRARGCHLQYQRAGVRFLAPFAAHPLDGGRRLTHLLGPDWLLDVSHLVAPHARVLDSRVASLEGGRVVVGREPGVTSIEVRSPLSDSILGEQALAVTDDKVSVLELRVQPVMGISLTLSRGTAHPGEVTATCWAQSALPAPKQEVALSLWLSFSDHTVAPAELYDRRDLGLSVSAEEPGAILPAEEQGAQLGVVVSGAGAEGLPLHVALHPPEPCRRGRHRVPLASGTAWLGLPPASTPAPALPSSPAWSPPATEATMGGKRQVAGSVGGNTGVRGKFERAEEEARKEETEAREEEEEEEEEMVPAPQHVTELELGMYALLGVFCVAIFIFLVNGVVFVLRYQRKEPPDSATDPTSPQPHNWVWLGTDQEELSRQLDRQSPGPPKGEGSCPCESGGGGEAPTLAPGPPGGTTSSSSTLARKEAGGRRKRVEFVTFAPAPPAQSPEEPVGAPAVQSILVAGEEDIRWVCEDMGLKDPEELRNYMERIRGSS
B7: ENY2 (protein, UniProt Q9NPA8 1-101, looked up)
Transcription and mRNA export …: MVVSKMNKDAQMRAAINQKLIETGERERLKELLRAKLIECGWKDQLKAHCKEVIKEKGLEHVTVDDLVAEITPKGRALVPDSVKKELLQRIRTFLAQHASL
B8: SG1D2 (protein, UniProt O95969 22-90, looked up)
Secretoglobin family 1D …: EFCPALVSELLDFFFISEPLFKLSLAKFDAPPEAVAAKLGVKRCTDQMSLQKRSLIAEVLVKILKKCSV
B9: HNRPQ (protein, UniProt O60506 2-623, looked up)
Heterogeneous nuclear …: ATEHVNGNGTEEPMDTTSAVIHSENFQTLLDAGLPQKVAEKLDEIYVAGLVAHSDLDERAIEALKEFNEDGALAVLQQFKDSDLSHVQNKSAFLCGVMKTYRQREKQGTKVADSSKGPDEAKIKALLERTGYTLDVTTGQRKYGGPPPDSVYSGQQPSVGTEIFVGKIPRDLFEDELVPLFEKAGPIWDLRLMMDPLTGLNRGYAFVTFCTKEAAQEAVKLYNNHEIRSGKHIGVCISVANNRLFVGSIPKSKTKEQILEEFSKVTEGLTDVILYHQPDDKKKNRGFCFLEYEDHKTAAQARRRLMSGKVKVWGNVGTVEWADPIEDPDPEVMAKVKVLFVRNLANTVTEEILEKAFSQFGKLERVKKLKDYAFIHFDERDGAVKAMEEMNGKDLEGENIEIVFAKPPDQKRKERKAQRQAAKNQMYDDYYYYGPPHMPPPTRGRGRGGRGGYGYPPDYYGYEDYYDYYGYDYHNYRGGYEDPYYGYEDFQVGARGRGGRGARGAAPSRGRGAAPPRGRAGYSQRGGPGSARGVRGARGGAQQQRGRGVRGARGGRGGNVGGKRKADGYNQPDSKRRQTNNQNWGSQPIAQQPLQGGDHSGNYGYKSENQEFYQDTFGQQWK

Test: Saliva proteomics: biomarker quantification by mass spectrometry SWATH in participants at risk of heart failure vs controls
Design: species or system human
Conditions: for AtRisk average: 'at risk' of heart failure group mean; for AtRisk average / Control average: mass spectrometry SWATH quantification; for Control average: control group mean
[1] = differential expression (fold) control vs 'at risk' group, saliva
[2] = differential expression (fold) control vs 'at risk', printed as larger/smaller average whatever the direction

| Molecule | Control vs Risk [1] | AtRisk average (saliva, 20 samples) | Control average (saliva, 20 samples) | Control vs Risk [2] | AtRisk average (saliva) | Control average (saliva) |
| --- | --- | --- | --- | --- | --- | --- |
| B1 | 1.94 | 214,983 ng/ml | 110,633 ng/ml |  |  |  |
| B2 | 1.95 | 48,145 ng/ml | 93,935 ng/ml |  |  |  |
| B3 |  |  |  | 6.50 | 1,902,352 ng/ml | 292,820 ng/ml |
| B4 | 1.95 | 40,698 ng/ml | 79,459 ng/ml |  |  |  |
| B5 | 1.93 | 63,955,674 ng/ml | 33,074,828 ng/ml |  |  |  |
| B6 | 1.98 | 71,196 ng/ml | 141,239 ng/ml |  |  |  |
| B7 | 1.93 | 55,945 ng/ml | 28,926 ng/ml |  |  |  |
| B8 |  |  |  | 5.22 | 191,255 ng/ml | 36,661 ng/ml |
| B9 | 1.93 | 413,769 ng/ml | 214,821 ng/ml |  |  |  |
